Reference: PubChem BioAssay AID2685 (National Center for Advancing Translational Sciences (NCATS), 2010)
This is one part of the list. Shown are side measurements of this screen, not its main read-out; they come without a call. Compounds called inactive in the main read-out are mostly missing here. Potencies come from curve fits of mixed quality, noted in brackets.

Assay: qHTS Assay for Lipid Storage Modulators in Drosophila S3 Cells;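 for cell number change: cells counted by Cell Tracker Red CMTPX staining in the red channel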
Conditions: BODIPY lipid droplet fluorescence, 18-24 h; for cell number change: measured here: cell count max response, cells fed with added oleic acid
Procedure, shortened: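 Drosophila S3 cells loaded with oleic acid (400 uM, as added) and compounds at several concentrations; lipid droplets imaged by 488-nm laser-scanning cytometry, 500–530 nm intensity and object ratio to cell channel. Percent activity normalized to 20 uM Triacsin C.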

[1] = measured here: cell number channel AC50, cells fed with added oleic acid
[2] = measured here: lipid fluorescence (Fed channel) AC50, cells fed with added oleic acid

| Compound | cell number change | AC50 [1] | AC50 [2] |
| --- | --- | --- | --- |
| Cc1cc(C(=O)OCC(=O)Nc2cc(Cl)ccc2C)c(C)o1 | 3.92% | 0.0259 µM [rising, partial curve] | 0.184 µM [rising, full curve] |
| O=[N+]([O-])c1ccccc1Oc1cnc2ccccc2n1 | 44.5% | 29.1 µM [rising, single point] | 29.1 µM [rising, single point] |
| CC(C)Oc1ccc(-c2cc(C(=O)NCCN3CCOCC3)c3ccccc3n2)cc1 | -3.33% | 1.03 µM [falling, partial curve] | 0.731 µM [falling, full curve] |
| Cc1nc(Nc2ccc(Cl)c(Cl)c2)sc1C(=O)Nc1ccccc1 | -63.4% | 29.1 µM [falling, single point] |  |
| O=C(NNS(=O)(=O)c1ccccc1)c1ccc(F)cc1 | 28.8% |  | 29.1 µM [rising, partial curve, poor fit] |
| Brc1ccc(-c2ccc(C3Nc4cccc5cccc(c45)N3)o2)cc1 | -20.3% |  | 1.16 µM [rising, single point] |
| O=C(CN(C(=O)CCC(=O)Nc1nccs1)c1ccc2c(c1)OCCO2)NCc1ccco1 | 27.1% |  | 0.58 µM [rising, single point] |
| CCc1ccc(OCC(=O)O/N=C(\N)c2cccnc2)cc1 | 14.3% |  | 20.6 µM [rising, single point] |
| O=C(COc1ccc(Cl)cc1Br)N1CCN(c2ncccn2)CC1 | -50% | 0.0731 µM [falling, full curve, poor fit] |  |
| Cc1ccc(NC(=S)N(CCCN2CCCC(C)C2)Cc2ccco2)cc1C (configuration not stated) | -0.352% |  |  |
| COc1ccc(S(=O)(=O)N2CCOCC2)cc1NC(=O)CCNC(=O)c1ccc(Br)cc1 |  | 5.17 µM [falling, single point] | 4.61 µM [falling, single point] |
| CSc1nc2ccc(NS(=O)(=O)c3ccc(CNC(C)=O)cc3)cc2s1 | -8.69% |  | 2.06 µM [falling, partial curve, poor fit] |
| CC(C)OC(=O)c1nnn(-c2nonc2N)c1CSc1ccccn1 | -18.7% |  | 6.51 µM [rising, partial curve, poor fit] |
| COCCNC(=O)COC(=O)c1[nH]c(C)c(C(C)=O)c1C |  | 0.164 µM [rising, full curve, poor fit] | 0.366 µM [rising, partial curve, poor fit] |
| CCOC(=O)c1cnc2c(OC)cccc2c1N1CCN(c2ccccc2OC)CC1 | -32.9% | 23.1 µM [falling, single point] |  |
| CCO[C@@H]1OC(C(=O)N2CCOCC2)=C[C@H](c2ccc(C(F)(F)F)cc2)[C@H]1CCCO | 20.4% |  | 0.092 µM [rising, full curve, poor fit] |
| O=C(NCc1cccnc1)C1c2ccccc2C(=O)N1Cc1ccccc1 (configuration not stated) | -0.787% |  |  |
| COc1ccc(S(=O)(=O)NCc2cccnc2)cc1NC(=O)c1ccc(C)cc1 |  |  | 4.11 µM [rising, single point] |
| O=C(O)c1cccc2c1-c1ccccc1/C2=N\Nc1ccccc1 | -26.1% |  |  |
| CSCC[C@H](NC(=O)COc1cc2c(c3oc(=O)c(C)c(C)c13)CCC(C)(C)O2)C(=O)O | 12.1% |  | 20.6 µM [rising, single point] |
| Cn1cccc1CNC(=S)Nc1ccccc1Cl | -12% | 0.291 µM [falling, single point] |  |

| Compound | cell number change | AC50 [1] | AC50 [2] |
| --- | --- | --- | --- |
| CCOc1ccc(NS(=O)(=O)c2ccc(C(=O)NCC(c3ccc(OC)cc3)N3CCCC3)cc2)cc1 (configuration not stated) | -11% |  | 16.4 µM [falling, single point] |
| CCCCC1CCC(C(=O)OC(C)C(=O)Nc2ccc(NC(C)=O)cc2)CC1 (configuration not stated) | 38.3% | 7.31 µM [rising, partial curve] | 0.517 µM [rising, full curve] |
| CCN1CCN(C(=O)C2CC(c3ccc(F)cc3)=NO2)CC1 (configuration not stated) | -0.196% |  | 29.1 µM [falling, single point] |
| CCOC(=O)c1[nH]cnc1C(=O)O | 10.9% |  | 20.6 µM [falling, partial curve] |
| Cc1ccc2nc(-c3ccc(NC(=O)COC(=O)c4ccco4)cc3)sc2c1 | -10.1% | 3.26 µM [falling, single point] | 2.06 µM [falling, single point] |
| COc1ccc(NC(=O)Cc2nnc(SCC(=O)c3ccccc3)n2C)cc1 | 16.7% |  | 0.116 µM [falling, single point] |
| CC(=O)C1=C(C)Nc2ncnn2C1c1ccc(Cl)cc1 (configuration not stated) | -0.291% |  |  |
| CN(C)CCNc1ncnc2c1cnn2-c1ccc(Cl)cc1 | 18.7% |  | 32.6 µM [rising, single point] |
| COc1cc(NS(=O)(=O)c2c(C)[nH]c(C)c2C(=O)N2CCCCC2)cc(OC)c1OC | -13.7% |  |  |
| O=C(CCNC(=O)c1ccc(Cl)cc1)NCc1cccc(C(F)(F)F)c1 | 316% | 29.1 µM [rising, single point] |  |
| CN1CCOCCOCCOCCN(C)C1=S | 1.91% |  |  |
| Cc1cc(NC(=O)c2oc3ccccc3c2C)ccc1-n1cnnn1 | -9.66% |  | 29.1 µM [falling, single point] |
| COc1ccc(OC)c(Nc2nc(C)nc3c2oc2ccccc23)c1 | -52.1% | 29.1 µM [falling, single point] | 29.1 µM [falling, single point] |
| CCOC(=O)C1(CCc2ccccc2)CCN(C2Cc3ccccc3C2)CC1 | -26.7% |  | 5.8 µM [falling, partial curve] |
| CN(C(=O)CSc1nncc2ccccc12)C1CCCCC1 | 4.48% | 6.51 µM [rising, single point] | 6.51 µM [rising, single point] |
| O=C(CSc1nnc(-c2ccc(O)cc2)n1Cc1ccco1)c1cccs1 | 22.7% |  | 0.058 µM [falling, full curve, poor fit] |
| Cc1ccc(C(=O)Oc2cc(-c3ccccc3)no2)cc1 | 10.9% |  | 0.206 µM [falling, full curve] |
| Cn1nnnc1SCc1nc2ccccc2[nH]1 | 16.3% |  |  |
| Cc1cc(N2CCOCC2)nc2ccc(NC(=O)CCC(=O)N3CCN(c4ccccc4F)CC3)cc12 | 37.4% |  |  |
| Clc1ccc(-n2nnnc2CN2CCCCC2)cc1Cl |  |  | 0.231 µM [falling, full curve, poor fit] |
| CN(Cc1cccs1)C(=O)CN1C(=O)c2ccccc2S1(=O)=O | -29.3% | 0.00517 µM [falling, full curve] | 0.00461 µM [falling, full curve] |

Record cards, from the list above:
COc1ccc(S(=O)(=O)N2CCOCC2)cc1NC(=O)CCNC(=O)c1ccc(Br)cc1 is listed as AC50 [1]: 5.17 µM [falling, single point]; AC50 [2]: 4.61 µM [falling, single point]
COc1cc(NS(=O)(=O)c2c(C)[nH]c(C)c2C(=O)N2CCCCC2)cc(OC)c1OC is listed as cell number change: -13.7%
COc1ccc(OC)c(Nc2nc(C)nc3c2oc2ccccc23)c1 is listed as cell number change: -52.1%; AC50 [1]: 29.1 µM [falling, single point]; AC50 [2]: 29.1 µM [falling, single point]

Going on with the list:

| Compound | cell number change | AC50 [1] | AC50 [2] |
| --- | --- | --- | --- |
| NNC(=O)CCCCCCCCCCOCCCCO |  | 0.0058 µM [rising, full curve, poor fit] |  |
| Cn1c(=O)c2sc3c(c2n(CC(=O)Nc2ccccc2)c1=O)COC(C)(C)C3 | 2.66% |  |  |
| Cc1c(C)c(C)c2[nH]c(-c3ccc4c(c3)OCO4)nc2c1C | -5.63% |  |  |
| Clc1ccc(Cn2nc(-c3ccccc3)nc2-c2ccccc2)cc1 | -4.15% | 2.31 µM [falling, single point] |  |
| CNc1oc(/C=C/c2ccccc2)nc1C#N | 58.9% | 4.61 µM [rising, single point] | 0.184 µM [rising, full curve] |
| CC(=O)Nc1sc(C)c(C)c1C(=O)OCC(=O)N(CCC#N)c1cc(C)cc(C)c1 | 12.4% |  |  |
| CCCCOc1ccc(C2/C(=C(\O)c3ccc4c(c3)OCCO4)C(=O)C(=O)N2CCCN2CCOCC2)cc1 (configuration not stated) |  |  | 29.1 µM [rising, single point] |
| Cc1cc(C)cc(NC(=O)CCc2c(C)nn(-c3ccc(N4CCCCC4)nn3)c2C)c1 | 11.9% | 0.0058 µM [rising, full curve, poor fit] |  |
| COCCN(C(=O)CSc1nc2ccc(Cl)cc2[nH]1)c1c(N)n(Cc2ccccc2)c(=O)[nH]c1=O | -4.14% |  | 29.1 µM [falling, single point] |
| Cc1cccc(Sc2c(C=O)c3ccccc3n2C)c1 | 24.9% |  | 23.1 µM [rising, single point] |
| COc1ccc(/C=C/C(=O)OCC(=O)Nc2cc(C(F)(F)F)ccc2Cl)cc1 | -9.04% |  | 20.6 µM [falling, partial curve, poor fit] |
| COc1ccc(-c2nc(C(N)=O)c3[nH]c(=O)n(-c4cccc(Cl)c4)c3n2)cc1OC | -162% | 6.51 µM [rising, partial curve, poor fit] | 29.1 µM [falling, single point] |
| CN(C(=O)COc1ncnc2sccc12)C1CCCCC1 | 13.1% |  | 3.66 µM [rising, partial curve, poor fit] |
| CCCC(=O)NC(c1ccc(C)cc1)c1ccc2cccnc2c1O (configuration not stated) | -59.6% | 8.2 µM [falling, partial curve] |  |
| COc1ccc(N(CC(=O)Nc2cc([N+](=O)[O-])ccc2C)S(C)(=O)=O)cc1OC | 16.1% |  |  |
| CSc1ccc(OC2CCCCC2NS(=O)(=O)c2ccccc2)cc1 (configuration not stated) | -11.4% | 5.8 µM [falling, single point] |  |
| Cc1ccc(S(=O)(=O)Nc2cccc(C(=O)NCC(c3ccco3)N3CCCCC3)c2)cc1F (configuration not stated) | -33.7% | 29.1 µM [falling, single point] | 1.84 µM [falling, partial curve] |
| Cn1c(CCC(N)=O)nnc1SCC(=O)Nc1cc(S(=O)(=O)N2CCCC2)ccc1Cl | -71.2% | 20.6 µM [falling, single point] |  |
| O=C(Nc1ccc(S(=O)(=O)N2CCOCC2)cc1)C1CCN(S(=O)(=O)c2ccccc2)CC1 | -50% | 0.411 µM [falling, full curve] |  |
